Measured values as given in article PMC11670450.

The chains behind the UniProt entries cited, without tags or fusion partners. Residues count along the entry.
UniProt P05106, residues 27-788: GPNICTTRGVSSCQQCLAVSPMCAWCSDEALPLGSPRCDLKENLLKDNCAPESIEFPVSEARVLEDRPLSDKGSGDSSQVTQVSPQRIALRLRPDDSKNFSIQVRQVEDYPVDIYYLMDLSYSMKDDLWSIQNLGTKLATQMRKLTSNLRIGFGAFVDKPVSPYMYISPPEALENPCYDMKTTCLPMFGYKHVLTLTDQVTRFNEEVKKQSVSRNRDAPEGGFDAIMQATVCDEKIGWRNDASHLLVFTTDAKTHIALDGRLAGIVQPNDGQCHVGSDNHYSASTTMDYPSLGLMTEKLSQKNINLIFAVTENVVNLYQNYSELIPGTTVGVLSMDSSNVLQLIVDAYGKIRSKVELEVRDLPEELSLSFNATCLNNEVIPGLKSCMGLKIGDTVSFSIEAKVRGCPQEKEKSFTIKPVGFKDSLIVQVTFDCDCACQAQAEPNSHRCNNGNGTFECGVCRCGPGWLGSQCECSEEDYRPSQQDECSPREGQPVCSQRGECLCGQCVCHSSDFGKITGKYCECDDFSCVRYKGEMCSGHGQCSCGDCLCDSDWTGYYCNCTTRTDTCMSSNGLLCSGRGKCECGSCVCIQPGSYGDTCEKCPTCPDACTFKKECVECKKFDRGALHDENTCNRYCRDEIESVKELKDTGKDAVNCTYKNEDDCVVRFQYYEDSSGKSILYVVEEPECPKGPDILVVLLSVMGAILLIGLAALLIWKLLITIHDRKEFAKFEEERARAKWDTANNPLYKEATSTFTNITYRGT
UniProt Q2WGJ9: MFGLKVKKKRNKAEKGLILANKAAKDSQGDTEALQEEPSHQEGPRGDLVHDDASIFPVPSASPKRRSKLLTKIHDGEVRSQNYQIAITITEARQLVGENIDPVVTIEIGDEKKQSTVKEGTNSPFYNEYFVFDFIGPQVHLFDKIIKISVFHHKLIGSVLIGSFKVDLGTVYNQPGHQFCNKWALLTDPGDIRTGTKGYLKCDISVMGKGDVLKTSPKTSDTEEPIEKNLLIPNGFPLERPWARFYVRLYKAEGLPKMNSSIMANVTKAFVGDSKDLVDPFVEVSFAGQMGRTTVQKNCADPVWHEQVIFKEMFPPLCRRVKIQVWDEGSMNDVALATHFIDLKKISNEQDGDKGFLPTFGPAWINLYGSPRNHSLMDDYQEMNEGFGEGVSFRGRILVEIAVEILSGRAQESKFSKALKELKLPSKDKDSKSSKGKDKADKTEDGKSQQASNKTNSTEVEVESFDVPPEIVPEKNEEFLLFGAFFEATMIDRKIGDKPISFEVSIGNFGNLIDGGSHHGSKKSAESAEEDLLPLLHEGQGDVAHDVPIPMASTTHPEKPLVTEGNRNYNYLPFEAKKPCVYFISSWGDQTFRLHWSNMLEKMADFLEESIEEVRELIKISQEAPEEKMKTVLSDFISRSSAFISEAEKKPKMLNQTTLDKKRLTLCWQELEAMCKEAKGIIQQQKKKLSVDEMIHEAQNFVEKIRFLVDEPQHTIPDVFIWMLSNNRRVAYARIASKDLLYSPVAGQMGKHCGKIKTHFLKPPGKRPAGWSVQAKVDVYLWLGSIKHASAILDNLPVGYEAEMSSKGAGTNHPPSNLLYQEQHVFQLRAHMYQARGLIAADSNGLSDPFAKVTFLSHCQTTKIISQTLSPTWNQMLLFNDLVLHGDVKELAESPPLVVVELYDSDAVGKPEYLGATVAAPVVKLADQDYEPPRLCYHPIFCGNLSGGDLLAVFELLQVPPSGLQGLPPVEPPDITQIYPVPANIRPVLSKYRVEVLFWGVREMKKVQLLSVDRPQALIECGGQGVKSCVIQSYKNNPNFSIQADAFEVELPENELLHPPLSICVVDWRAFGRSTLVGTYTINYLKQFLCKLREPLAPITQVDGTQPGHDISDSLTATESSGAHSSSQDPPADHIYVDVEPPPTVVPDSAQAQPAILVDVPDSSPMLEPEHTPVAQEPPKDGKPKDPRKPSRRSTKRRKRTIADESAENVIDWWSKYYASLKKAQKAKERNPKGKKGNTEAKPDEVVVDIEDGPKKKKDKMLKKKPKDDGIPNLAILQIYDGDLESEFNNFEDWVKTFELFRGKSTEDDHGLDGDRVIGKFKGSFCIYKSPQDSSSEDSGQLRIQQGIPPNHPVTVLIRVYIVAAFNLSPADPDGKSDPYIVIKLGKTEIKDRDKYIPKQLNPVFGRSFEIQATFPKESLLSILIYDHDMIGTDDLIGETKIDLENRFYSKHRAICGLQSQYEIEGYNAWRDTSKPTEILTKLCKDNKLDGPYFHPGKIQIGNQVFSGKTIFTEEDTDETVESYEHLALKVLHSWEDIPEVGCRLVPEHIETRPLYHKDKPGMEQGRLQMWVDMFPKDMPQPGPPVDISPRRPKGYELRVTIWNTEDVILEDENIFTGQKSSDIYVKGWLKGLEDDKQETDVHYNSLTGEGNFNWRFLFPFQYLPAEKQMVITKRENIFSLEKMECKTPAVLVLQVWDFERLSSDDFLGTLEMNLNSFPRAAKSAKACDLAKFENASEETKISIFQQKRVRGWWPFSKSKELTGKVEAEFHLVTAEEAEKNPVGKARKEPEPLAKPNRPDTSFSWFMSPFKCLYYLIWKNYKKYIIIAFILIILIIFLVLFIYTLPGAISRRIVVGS
UniProt P02042: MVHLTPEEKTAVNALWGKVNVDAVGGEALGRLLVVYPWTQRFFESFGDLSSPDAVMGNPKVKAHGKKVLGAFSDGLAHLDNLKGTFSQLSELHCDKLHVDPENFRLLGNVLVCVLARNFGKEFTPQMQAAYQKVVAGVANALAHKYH
UniProt Q9H583: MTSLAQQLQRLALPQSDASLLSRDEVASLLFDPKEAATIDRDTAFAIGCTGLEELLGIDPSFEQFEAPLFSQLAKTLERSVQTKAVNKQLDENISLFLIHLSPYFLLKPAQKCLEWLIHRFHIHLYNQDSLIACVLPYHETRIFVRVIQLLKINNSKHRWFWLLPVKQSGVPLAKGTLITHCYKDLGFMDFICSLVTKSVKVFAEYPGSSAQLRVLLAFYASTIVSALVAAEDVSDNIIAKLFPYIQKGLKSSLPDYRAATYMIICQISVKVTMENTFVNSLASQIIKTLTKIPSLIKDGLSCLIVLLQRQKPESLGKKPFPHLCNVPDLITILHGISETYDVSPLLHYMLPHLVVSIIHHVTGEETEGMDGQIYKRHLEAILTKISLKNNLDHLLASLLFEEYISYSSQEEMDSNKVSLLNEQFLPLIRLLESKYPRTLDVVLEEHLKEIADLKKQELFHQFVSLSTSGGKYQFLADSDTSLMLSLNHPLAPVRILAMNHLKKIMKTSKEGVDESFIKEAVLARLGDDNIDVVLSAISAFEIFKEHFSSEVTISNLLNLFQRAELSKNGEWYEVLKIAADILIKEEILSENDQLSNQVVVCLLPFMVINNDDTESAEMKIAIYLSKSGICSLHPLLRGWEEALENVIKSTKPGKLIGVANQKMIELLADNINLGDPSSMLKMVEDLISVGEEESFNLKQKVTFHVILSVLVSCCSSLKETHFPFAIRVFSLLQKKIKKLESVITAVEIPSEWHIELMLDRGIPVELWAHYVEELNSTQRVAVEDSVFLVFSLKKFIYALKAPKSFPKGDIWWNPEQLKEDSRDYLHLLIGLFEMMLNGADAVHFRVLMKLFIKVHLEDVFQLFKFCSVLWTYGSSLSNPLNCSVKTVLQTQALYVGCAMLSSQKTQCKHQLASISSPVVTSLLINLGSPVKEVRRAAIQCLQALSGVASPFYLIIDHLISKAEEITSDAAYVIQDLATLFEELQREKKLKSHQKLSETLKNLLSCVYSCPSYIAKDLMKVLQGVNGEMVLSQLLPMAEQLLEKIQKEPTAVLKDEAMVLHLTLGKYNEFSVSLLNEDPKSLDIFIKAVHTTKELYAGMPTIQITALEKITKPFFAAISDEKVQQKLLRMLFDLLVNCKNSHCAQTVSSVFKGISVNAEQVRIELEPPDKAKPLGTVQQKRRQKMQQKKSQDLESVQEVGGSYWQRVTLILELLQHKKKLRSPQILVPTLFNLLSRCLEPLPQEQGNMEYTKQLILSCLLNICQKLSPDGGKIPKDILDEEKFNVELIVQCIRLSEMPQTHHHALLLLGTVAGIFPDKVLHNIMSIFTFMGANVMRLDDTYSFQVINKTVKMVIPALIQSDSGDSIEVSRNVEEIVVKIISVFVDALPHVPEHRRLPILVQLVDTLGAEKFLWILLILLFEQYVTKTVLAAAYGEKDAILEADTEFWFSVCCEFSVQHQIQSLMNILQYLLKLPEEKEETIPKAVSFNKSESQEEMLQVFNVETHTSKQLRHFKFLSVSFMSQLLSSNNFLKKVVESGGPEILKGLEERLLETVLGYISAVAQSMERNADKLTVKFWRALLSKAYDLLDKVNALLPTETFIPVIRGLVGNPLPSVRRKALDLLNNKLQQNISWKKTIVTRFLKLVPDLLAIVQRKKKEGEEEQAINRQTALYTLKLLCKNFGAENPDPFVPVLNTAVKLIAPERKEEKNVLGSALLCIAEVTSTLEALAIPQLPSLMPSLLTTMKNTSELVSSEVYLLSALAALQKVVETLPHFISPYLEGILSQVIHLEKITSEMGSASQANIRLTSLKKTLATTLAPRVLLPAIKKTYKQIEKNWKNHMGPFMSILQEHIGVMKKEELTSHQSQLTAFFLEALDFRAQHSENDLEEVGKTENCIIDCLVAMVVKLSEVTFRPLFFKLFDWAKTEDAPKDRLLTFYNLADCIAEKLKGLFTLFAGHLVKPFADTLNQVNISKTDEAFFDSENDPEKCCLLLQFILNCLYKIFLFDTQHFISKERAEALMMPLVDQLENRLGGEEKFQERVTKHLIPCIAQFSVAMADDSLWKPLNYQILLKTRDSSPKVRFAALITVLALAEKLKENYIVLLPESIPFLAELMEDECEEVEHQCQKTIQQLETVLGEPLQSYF
UniProt P69891: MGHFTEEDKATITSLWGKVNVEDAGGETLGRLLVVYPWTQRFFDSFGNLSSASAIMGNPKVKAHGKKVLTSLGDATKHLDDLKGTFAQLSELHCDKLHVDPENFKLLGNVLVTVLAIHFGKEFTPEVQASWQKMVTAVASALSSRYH
UniProt Q9BVA1: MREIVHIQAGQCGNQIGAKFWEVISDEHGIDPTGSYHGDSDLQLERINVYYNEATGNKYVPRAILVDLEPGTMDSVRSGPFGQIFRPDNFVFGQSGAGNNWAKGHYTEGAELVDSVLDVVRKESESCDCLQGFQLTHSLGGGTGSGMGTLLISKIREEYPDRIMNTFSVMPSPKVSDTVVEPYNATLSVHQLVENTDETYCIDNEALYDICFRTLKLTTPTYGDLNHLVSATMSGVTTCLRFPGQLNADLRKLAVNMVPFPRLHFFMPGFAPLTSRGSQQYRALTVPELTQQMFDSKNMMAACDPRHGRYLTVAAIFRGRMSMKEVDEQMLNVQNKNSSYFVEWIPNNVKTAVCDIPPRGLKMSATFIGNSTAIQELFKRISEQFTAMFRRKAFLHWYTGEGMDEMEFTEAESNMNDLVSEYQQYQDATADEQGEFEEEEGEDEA
UniProt P08123, residues 80-1119: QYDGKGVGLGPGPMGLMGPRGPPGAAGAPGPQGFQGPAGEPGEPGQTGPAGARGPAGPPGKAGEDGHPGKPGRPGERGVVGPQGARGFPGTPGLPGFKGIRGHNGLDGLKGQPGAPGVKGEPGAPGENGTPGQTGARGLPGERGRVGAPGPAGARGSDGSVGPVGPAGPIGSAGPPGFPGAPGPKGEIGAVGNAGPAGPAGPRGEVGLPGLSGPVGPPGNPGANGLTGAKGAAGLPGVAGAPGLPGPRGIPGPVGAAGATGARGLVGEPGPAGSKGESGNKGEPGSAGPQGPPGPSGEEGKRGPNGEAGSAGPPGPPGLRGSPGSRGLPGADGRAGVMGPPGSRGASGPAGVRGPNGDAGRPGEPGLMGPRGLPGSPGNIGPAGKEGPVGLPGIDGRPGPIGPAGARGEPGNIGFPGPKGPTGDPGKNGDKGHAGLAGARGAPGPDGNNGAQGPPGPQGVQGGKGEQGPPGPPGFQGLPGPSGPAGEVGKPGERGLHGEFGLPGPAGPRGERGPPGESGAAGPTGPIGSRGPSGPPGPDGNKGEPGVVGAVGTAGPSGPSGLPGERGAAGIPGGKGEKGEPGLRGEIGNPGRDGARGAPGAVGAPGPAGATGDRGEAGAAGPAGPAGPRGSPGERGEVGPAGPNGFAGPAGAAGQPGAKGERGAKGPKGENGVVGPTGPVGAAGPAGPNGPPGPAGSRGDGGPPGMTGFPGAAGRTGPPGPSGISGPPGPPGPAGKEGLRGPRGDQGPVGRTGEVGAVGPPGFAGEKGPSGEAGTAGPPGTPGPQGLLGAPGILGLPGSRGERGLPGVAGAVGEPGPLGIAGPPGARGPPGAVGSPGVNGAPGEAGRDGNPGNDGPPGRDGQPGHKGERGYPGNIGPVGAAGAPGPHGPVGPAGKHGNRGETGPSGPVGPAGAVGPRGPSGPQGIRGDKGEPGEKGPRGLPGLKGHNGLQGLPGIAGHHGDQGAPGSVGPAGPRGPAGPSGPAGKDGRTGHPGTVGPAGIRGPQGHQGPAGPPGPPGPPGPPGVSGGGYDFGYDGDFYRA

Each substance was assayed against Integrin beta-3 (human (endogenous in HTR-8/SVneo)) (UniProt P05106) (assay: affinity purification with mass spectrometry; HTR-8/SVneo cell lysate incubated with anti-ITGB3 antibody or nonimmune IgG at 4 °C overnight, protein A/G beads, washes in TBS with 0.05% Tween-20, glycine pH 2.7 elution; SDS-PAGE, silver stain, in-gel digest of the enriched band, LC-MS/MS; proteins specific to the ITGB3 group, abundance threshold > 20).

Row | binding | Substance
1 | binds | Hemoglobin subunit alpha (from UniProt P69905 1-142)
2 | binds | Keratin, type II cytoskeletal 2 oral (from UniProt Q01546 1-638)
3 | binds | Fer-1-like protein 6 (from UniProt Q2WGJ9 1-1857)
4 | binds | POTE ankyrin domain family member J (from UniProt P0CG39 1-1038)
5 | binds | Hemoglobin subunit delta (from UniProt P02042 1-147)
6 | binds | Desmoplakin (from UniProt P15924 1-2871)
7 | binds | HEAT repeat-containing protein 1 (from UniProt Q9H583 1-2144)
8 | binds | Keratin, type II cytoskeletal 3 (from UniProt P12035 1-628)
9 | binds | Chromodomain-helicase-DNA-binding protein 9 (from UniProt Q3L8U1 1-2897)
10 | binds | Hemoglobin subunit gamma-1 (from UniProt P69891 1-147)
11 | binds | Serine/arginine repetitive matrix protein 2 (from UniProt Q9UQ35 1-2752)
12 | binds | Apolipoprotein E (from UniProt P02649 19-317)
13 | binds | Glutamate receptor ionotropic, NMDA 3 A (from UniProt Q8TCU5 24-1115)
14 | binds | Fibrinogen beta chain (from UniProt P02675 45-491)
15 | binds | Heat shock protein beta-1 (from UniProt P04792 1-205)
16 | binds | E3 ubiquitin-protein ligase UBR4 (from UniProt Q5T4S7 1-5183)
17 | binds | Glyceraldehyde-3-phosphate dehydrogenase (from UniProt P04406 1-335)
18 | binds | Tubulin beta-2B chain (from UniProt Q9BVA1 1-445)
19 | binds | Alpha-1-antitrypsin (from UniProt P01009 25-418)
20 | binds | Collagen alpha-2(I) chain (from UniProt P08123 80-1119)
21 | binds | Histone H1.3 (from UniProt P16402 1-221)
22 | binds | Glutamyl aminopeptidase (from UniProt Q07075 1-957)
23 | binds | Apolipoprotein A-I (from UniProt P02647 19-267)
24 | binds | Immunoglobulin heavy constant alpha 1 (from UniProt P01876 1-398)
25 | binds | Tubulin alpha-3 C chain (from UniProt P0DPH7 1-450)
26 | binds | Keratin, type I cytoskeletal 17 (from UniProt Q04695 1-432)

No constants are given. Whether binding was seen depends on the method and setting. Binding seen in cells or lysates may run through a third protein. These calls come from enrichment with a bait or labelling near it, and not all partners need be listed.
